At least one peptide structure holds a part that was inferred or is arguable (an end, a ring closure or a residue).
Test system: Spontaneously hypertensive rats (SHR)
Assay: Vasodepressor action on oral administration to rat (tail-cuff blood pressure)
Format: in vivo
Settings: 26 weeks of age, oral by stomachic sonde, fermented milk a 2 ml per rat, peptide b 150 μg per rat

CC(C)[C@H](N)C(=O)N1CCC[C@H]1C(=O)N1CCC[C@H]1C(=O)O [Peptide b, Val-Pro-Pro]
Difference in blood pressure between directly before administration and after 4 hrs. (after 4 hrs.): -32.0 mmHg
Difference in blood pressure between directly before administration and after 8 hrs. (after 8 hrs.): -26.5 mmHg
